Variants at the floor of the assay are shown more often than the library holds them.
B1: tRNA (parent)
chain: GUUCCGUUGGCGUAAUGGUAACGCGUCUCCCUCCUAAGGAGAAGACUGCGGGUUCGAGUCCCGUACGGAACG

Variants of: B1
Assay: yeast fitness relative to wild type (ratio to wild type); higher = fitter; tRNA-Arg(CCU), competitive growth, 37 C, YPD
Procedure, shortened: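 For this measurement, the tRNA-Arg(CCU) gene was varied by chemical synthesis at a 3% per-site mutation rate across 69 sites, and each variant was placed at the native genomic locus in Saccharomyces cerevisiae. The pooled strains went through a 24-hour competition in YPD at 37°C in six parallel replicates, with amplicons from start and end populations read by 100-nucleotide paired-end sequencing. Darwinian fitness relative to wild type followed from the change in each genotype's frequency. Genotypes needed ≥ 100 starting reads, and estimates < 0.5 were set to 0.5.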

Yeast fitness, 0.818:
GUUCCGUUGGUGUAAUGGUAGCGCGUCUCCCUCCUAAGGAGAAGACUGCGGGUUCGAGUCCCGUACGGACCG

Yeast fitness, 0.951:
GUUCCGUUGGUGUAAUGGUAACGCGUCUCCCUCCUAAGGAGAAGUCUGCGGGUUCGAGUCCCGUACGGAACG

Yeast fitness, 0.571:
GUUCCGUUGGUGUAAUGGUAACGCGUCUCCCUCCUAAGGAGAAGAGUGCGAGUUCGAGUCCCGUACGGAACG

Yeast fitness, 0.986:
GUUCCGUUGGUGUAAUGGUAACGCGUCUCCCUCCUAAGGAGAAGAGUGCGGGUUCGAGUCCCGUACGGAACG

Yeast fitness, 0.58:
GUUCCGUUGGUGUAAUGGUAACGCGUCUCCCUUCUAAGGAGAAGACUACGGGUUCGAGUCCCGUACGGAACG

Yeast fitness, ≤ 0.5:
GUUCCGUUGGGGUAAUGGUAACGCGUCUCCCUCCUAAGGAGAAGACUGCGGGUCCGAGUCCUGUACGGAACG
GUUCCGUUGGGGUAAUGGUAACGCGUCUCCCUCCUAAGGAGAAGACUGCGGGUGCGAGUCCCGUACGGAACG
GUUCCGUUGGUGUCAUGGUAAUGCGUCUCUCUCCUAAGGAGACGACUGCGGGUUCGAGUCCCGUACGGAACG
GUUCCGUUGGUGUCAGGGUAACGCGUCUACCUCCUAAGGAGAAGACUGCGGGUUCGGGUCCCGUACGCAACG
GUUCCGUUGGUGUCAUGGUAACGCGCCUCCCUCCUAAGGAGAAGACUGCGGGUUUGAGUCCCGUACGGAACG
GUUCCGUUGGUGUUAUGGUAACGGGUCUCCCUCCUAAGGAGAAGACUGCGGGUUCGUGUCCCGUACGGAACG
GUUCCGUUGGUGUACUGGUAACGCGUCUCCCUCCUAAGGUGAAGACUGCGGGUUCGAGUCCCGUAGGGAACG
GUUCCGUUGGUGUAUUGGUAAUGCGUCUCCCUCCUAAGGAGAAGACUGCGGGUUCGAGUCCCGUACAGAACG
GUUCCGUUGGUGUAUUGGUAACGCGUGUCCCUCCUAAGGAGAAGACUGCGGGUUGGAGUCCCGUACGGAACG
GUUCCGUUGGUGUAUUGGUAACGCGUCUCCCUCCUAAGGAGAAGACUGCGGGUUUGAGUCCCGUAUGGAACG
GUUCCGUUGGUGUAAUGGUCACGCCUAUCCCUCCUAUGGAGAAGACUGCGGGUUCGAGUCUCGUACGGAACG
GUUCCGUUGGUGUAAUGGUGACGUGUCUCCCUCCUAAGGAGAAGACUGCGGGUUCGAGUCUCGCACGGAACG
GUUCCGUUGGUGUAAUGGUUACGCGUCUCCCUCCUAAGGAGAGGACUGCGGCCUCGAGUCCCCUACGGAACG
GUUCCGUUGGUGUAAUGGUUAAGCGUCUCCCUCCUAAGGAGAAGACUGCGGGUUCGAGUCCCGUAGGGAACG
GUUCCGUUGGUGUAAUGGUAGCGCGUCUCCCUCCUAAGGCGUAGAUUGUGAGUUCGAGUCCCGUCCGGAACG
GUUCCGUUGGUGUAAUGGUAGCGAGUCUCCCUCCUAAGGAGAAGACUGCGGAUUCGAGUACCGUACGGAACG
GUUCCGUUGGUGUAAUGGUAGCGCGUCUCCCUACUAAGGAGAAGACUGCGGGUUCGAGUCCCGUCCGGACCG
GUUCCGUUGGUGUAAUGGUAACGCGUCUCCCUCCUAGGGAGAAGACUGCGGGUUCGACUCUCGCACGGAACG
GUUCCGUUGGUGUAAUGGUAACGCGUCUCCCUCCUAGGGAGAAGACAGCGGGUUCGAGUACCGUACGGAACG
GUUCCGUUGGUGUAAUGGUAACGCGUCUCCCUCCUAGGGAGAAGACUGCGGGUACGGGGCCCGUACGGAACG
GUUCCGUUGGUGUAAUGGUAACGCGUCUCCCUCCUAAGGCGAAGACUGCGGGAUCGAGUCCCGUAAGGAACG
GUUCCGUUGGUGUAAUGGUAACGCGUCUCCCUCCUAAGGAGCAGACUGCGGGUUCGAGUUCCGUACGGAACG
GUUCCGUUGGUGUAAUGGUAACGCGUCUCCCUCCUAAGGAGCAGACUGCCGGUUCGAGUCCCGUAUGGAACG
GUUCCGUUGGUGUAAUGGUAACGCGUCUCCCUCCUAAGGAGGAGACUGCGGGUUCGAGUUCCGUACGGGUCG
GUUCCGUUGGUGUAAUGGUAAAGCGUCUGCCUUCUAAGGAGAGGACUGCGGGCUCGAGUCACGUACGAAACG
GUUCCGUUGGUGUAAUGGUAAGGCGUCUCCCUCCUAAGGUGAGGACUCCGCGUUCGGGUCGCGUACGGAACG
GUUCCGUUGGUGUAAUGGUAAUGUGUCUCCCUCCUAAGGAGAAGACUGCGGGAUCGAGUCCCGUACGGAACG
GUUCCGUUGGUGUAAUGGUAAUGCGUCUCACUCCUAAGGAGCAGACUGCGGGUUCGAAUCCCGUACGGAACG
GUUCCGUUGGUGUAAUGGUAAUGCGUCUCCCUCCUAAGGAGAACACUGCGGAUUCGAGUCCCGUAGGCAACG
GUUCCGUUGGUGUAAUGGUAACGGGUCUCCCUCCUAAGGAGACGACUGCGGGUUCGAGUCCCCUACAGAACG
GUUCCGUUGGUGUAAUGGUAACGUGUCUGCCUCCUAAAGCGAAGACUGCGGGUUCGAGUCACGUGCGGAACG
GUUCCGUUGGUGUAAUGGUAACGCGUAUACCUCCUAUGGAGAAGUCUGCGGGUUCGAGUCCCGCACGGAACG
GUUCCGUUGGUGUAAUGGUAACGCGUAUCCCUCCUAAGGAGAAGACUGCGGGUGCGAGUCCCGUACGGAACG
GUUCCGUUGGUGUAAUGGUAACGCGUGUCCUUCGUAGGGAGAAGACUGCGGGUUCGAGUCCCGUACGGAACG
GUUCCGUUGGUGUAAUGGUAACGCGUGUCCCUCCUAAGGAGAAGAGUGCGGGUUCGAGUCCAGUACGGAACG
GUUCCGUUGGUGUAAUGGUAACGCGUUUCCAUCCUAAGGAGGAGACUGGGAGUUCGAGUCCCGUACGCAACG
GUUCCGUUGGUGUAAUGGUAACGCGUUUCCCUCAUAAGGAGAACACUGCGGGUUCGAGUCCAGUACGGAACG
GUUCCGUUGGUGUAAUGGUAACGCGUCUACCUCCUUAGGAGAAGACUGUGGGUUCGAGUCCCGUACGGAACG
GUUCCGUUGGUGUAAUGGUAACGCGUCUGCCUCGUAAGGAGAAGACUGCGGGUUCGAGUCCUGUACGGCACG
GUUCCGUUGGUGUAAUGGUAACGCGUCUUCCUCCUAAGGAGAAGACUGCGGGUUCGUGUCUCGUACGGAACG
GUUCCGUUGGUGUAAUGGUAACGCGUCUUCCUCCUAAGGAGAAGAGUGUGGGUUCGAGUCCCGUACGGAACG
GUUCCGUUGGUGUAAUGGUAACGCGUCUUCCUCCUAAGGAGAAGACUGAGGGUUCGAGUCCCGUACGGAACG
GUUCCGUUGGUGUAAUGGUAACGCGUCUUCCUCCUAAGGAGAAGACUGCGGGUUCGAGUGCCGUACGGAACG
GUUCCGUUGGUGUAAUGGUAACGCGUCUCACUCCUGAGGAGAAGACUGCGGGUUCGAGUCCCGUGCGGAACG
GUUCCGUUGGUGUAAUGGUAACGCGUCUCACUCCUAAGGAGAAGACUGCGGGUUGGCGUCCCGUACGGAACG
GUUCCGUUGGUGUAAUGGUAACGCGUCUCUCUCCUAAGGAGAAGACUGCGGGUUCGACUCCCGUAAGGAACG
GUUCCGUUGGUGUAAUGGUAACGCGUCUCCAUCCUAAGGACAAGACUGCGGGUUCGAGUGCCGUACGGAACG
GUUCCGUUGGUGUAAUGGUAACGCGUCUCCAUCCUAAGGAGAAGACUGCGAGUUCGAGUCCCGUACGGAACG
GUUCCGUUGGUGUAAUGGUAACGCGUCUCCGUCGUAAGGAGAUGACUGCGGGUUCGAGUCCCGUACGGAACG
GUUCCGUUGGUGUAAUGGUAACGCGUCUCCUUCCUAACGAGAAGACCGCGGGUUCGAGUCCCGUACGGAACG
GUUCCGUUGGUGUAAUGGUAACGCGUCUCCUUCCUAAGGAGAAGACUGCGGGCUCGAGUCCCGUAAAGAGCG
GUUCCGUUGGUGUAAUGGUAACGCGUCUCCCUGCUGAGGAGAAGACUGAGGGUUCGAGUCCCGUGCGGAACG
GUUCCGUUGGUGUAAUGGUAACGCGUCUCCCUGCUAAGGAGAAGACUGCAGGUUCGAGUCCCGUACGGUACG
GUUCCGUUGGUGUAAUGGUAACGCGUCUCCCUUCUGAGAAGAAAACUGCGGGUUGGAGCCCCGUACGGAACG
GUUCCGUUGGUGUAAUGGUAACGCGUCUCCCUCGUAAGCAGAAGACUGCGGGUUCGAGUCCCGUACGGAACG
GUUCCGUUGGUGUAAUGGUAACGCGUCUCCCUCUUAAGGAGAAGACUGCGGGUUCGAGUCCAGUAUGGAACG
GUUCCGUUGGUGUAAUGGUAACGCGUCUCCCUCUUAACGAGAAGACUGCGGGUUAGAGUCCCGUACGGAACG
GUUCCGUUGGUGUAAUGGUAACGCGUCUCCCUCUUAAGGAAAAGGCUGCGGGUUCGAGUCCCGUACGGAACG
GUUCCGUUGGUGUAAUGGUAACGCGUCUCCCUCUUAAGGAGAAGACUACGGGUUCGAGUCCCGUAAGGAACG
GUUCCGUUGGUGUAAUGGUAACGCGUCUCCCUCCUAAGGAGAAGACUGAGGGUUCGCGUCCCGUACGGAACG
GUUCCGUUGGUGUAAUGGUAACGCGUCUCCCUCCUAAGGAGAAGACUGUGGGUUCAAGUCCCGUCCGGAACG
GUUCCGUUGGUAUAAUGGUAACGCGUCUCCUUCCUAAGGAGAAGACUGCGGGCUCGAGUCCCGUACGGAACG
GUUCCGUUGGUAUAAUGCUAACGCGUCUCCCUCCUAAGGAGAAGAUUGCGGGUUCGAGUCCCGUAUGGAACG
GUUCCGUUGGUGUAAUAGUAACGCGUCUCCCUCCUAAGGAGAAGACUCCGGGUUCGAGUCCCGUACGGAACG
GUUCCGUUGGUGUAAUCGUAACGGGUCUGCCUCCUAAGGAGAAGACUGCGGGUUCGAGUCCCGUAUGGAACG
GUUCCGUUGGUGUAAUGAUAAUGCGUCUCCCUCCUUAGGAGAAGACUGCGGGUUCGAGUCCCGUACGGAACG
GUUCCGUUGGUGUAAUGAUAACGCGUCUGUCUCCUAAGGUGAAGACUGCGGGUUCGAGUCCCGUACGGAGCG
GUUCCGUUGGUGUAAUGAUAACGCGUCUCCCUCCUAAGGAGAAGACUGCGGGUUCGAGUCCAGUACGGACCG

Yeast fitness, 0.632:
GUUCCGUUGGUGUAAUGGUAUCGCGUCUCCCUCCUAAGGAGAAGACUGCGGGUUAGAGUCCCGUACGGAACG

Yeast fitness, 0.529:
GUUCCGUUGGUGUAAUGGUAACGCGUCUCCCUCCUAAGGAGAAGACUGCGGGUUCGAGUCCGAUACGGAACG

From the RNAGym collection of RNA variant scans (doi:10.1126/science.aae0568)
